Results taken from PubChem BioAssay AID602313 (National Center for Advancing Translational Sciences (NCATS), 2012).
In all, about 390,000 compounds went through this assay and about 760 (0.19%) were called active. The shares of active, inactive and inconclusive entries below differ from those in the screen. Calls come from the whole dose curve; as a rule, active = well fitted inhibition curve with a large enough effect; inconclusive = small, poorly fitted or top-dose-only effect; inactive = flat fitted curve, though single readings scatter. Potencies beside an inconclusive call are fits to weak or partial responses and may not hold up.

Assay: qHTS for Inhibitors of Vif-A3F Interactions: qHTS; note: nearly all actives have a fitted effect of over 65% in size; for activity, negative = active: % of control where 0% means no effect
Conditions: HeLa A3F-eYFP + Vif (tagged APOBEC3F with the HIV-1 protein that degrades it), YFP fluorescence increase; series mostly up to 46.1 µM; activity, negative = active: at the top concentration
In short: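 HeLa cells stably expressing Vif plus C-terminally eYFP-tagged A3F were seeded, incubated overnight at 37 deg C, dosed with compound, incubated overnight again at 37 deg C. Yellow fluorescence (Ex 488/Em 500-530) reported blocked Vif-mediated A3F-eYFP degradation.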
Potency is the fitted concentration of half-maximal effect.

Compound | activity, negative = active | Potency
CSc1nnc(-c2ccco2)c(-c2ccco2)n1 | inactive: -6.03% | 
COc1ccc(Sc2nc(-c3ccccn3)ncc2OC)cc1 |  | inconclusive: 22.4 µM [inhibitor, single point]
COc1cc(/C=C(\C#N)c2nc3ccc(C)cc3[nH]2)ccc1OCc1ccc(C)cc1 |  | inconclusive: 20 µM [inhibitor, partial curve, poor fit]
CCOC(=O)N1CCc2c(sc3c2C(=O)NC(c2ccc(N(C)C)cc2)N3)C1 (centres undefined) |  | active: 11.2 µM
O=C1Nc2ccccc2Oc2cc([N+](=O)[O-])cc(Oc3ccccc3)c21 |  | inconclusive: 35.5 µM [inhibitor, single point]
O=C(O)c1cn(-c2ccccc2)nc1-c1ccc(F)cc1 | inactive: 11.5% | 
COc1cccc(NC(=O)CN2CCN(C(=O)c3ccco3)CC2)c1 |  | inconclusive: 2.51 µM [inhibitor, full curve, poor fit]
Cc1cc(C)cc(OCC(=O)NNC(=O)C2CCCO2)c1 (centres undefined) |  | inconclusive: 0.316 µM [inhibitor, full curve, poor fit]
COCCN(CCOC)S(=O)(=O)c1ccc(C(=O)Nc2sc3c(c2C(=O)OC)CCN(C)C3)cc1 |  | inconclusive: 35.5 µM [inhibitor, single point]
Cc1csc(C(C#N)C(=O)c2ccc(S(=O)(=O)N3CCCC3)cc2)n1 (centres undefined) | inactive: -1.05% | 
O=C(N/N=C/c1ccc([N+](=O)[O-])o1)c1sc2ccccc2c1Cl |  | active: 8.91 µM
O=[N+]([O-])c1ccccc1-c1ccc(C(=S)N2CCCC2)o1 | inactive: -16.3% | 
CCOC(=O)CSc1nc(-c2ccc(OCC)cc2)cc(C(F)(F)F)c1C#N |  | inconclusive: 17.8 µM [inhibitor, partial curve, poor fit]
COc1ccc(NC(=O)c2cc(-c3cc(C)c(C)cc3O)n[nH]2)c(OC)c1 |  | inconclusive: 20 µM [inhibitor, partial curve, poor fit]
COc1ccccc1-c1cc(-c2ccccc2)nc(SC(C(N)=O)c2ccccc2)c1C#N (centres undefined) |  | inconclusive: 20 µM [inhibitor, partial curve, poor fit]
COC(=O)C1=NN(C(=O)c2ccc(C)cc2)C(O)(c2ccc(Cl)cc2)C1 (centres undefined) |  | inconclusive: 12.6 µM [inhibitor, partial curve, poor fit]
Cc1cc(N/N=C2/CCCc3ccccc32)nc2ccccc12 |  | inconclusive: 22.4 µM [inhibitor, single point]
CC(=O)N1CCc2cc(S(=O)(=O)NC(Cc3ccccc3)C(=O)NCc3ccccc3)ccc21 (centres undefined) | inactive: -3.1% | 
O=C(Nc1sc2c(c1C(=O)NCc1ccco1)CCCC2)c1cc(=O)c2cc(Cl)ccc2o1 |  | inconclusive: 35.5 µM [inhibitor, single point]
COc1ccc(CCNC(=O)CCCc2ccccc2)cc1 |  | inconclusive: 3.98 µM [inhibitor, partial curve, poor fit]
Cc1ccc(CNC(=O)C(Cc2ccccc2)NS(=O)(=O)c2ccc(Br)s2)cc1 (centres undefined) | inactive: -4.47% | 
O=C(NCc1ccc(Cl)cc1)C1CCN(S(=O)(=O)c2cccc3nonc23)CC1 |  | inconclusive: 17.8 µM [inhibitor, partial curve, poor fit]

Reformatted: 3 of the compounds above.
COc1ccc(Sc2nc(-c3ccccn3)ncc2OC)cc1
  Potency: inconclusive: 22.4 µM [inhibitor, single point]
Cc1csc(C(C#N)C(=O)c2ccc(S(=O)(=O)N3CCCC3)cc2)n1 (centres undefined)
  activity, negative = active: inactive: -1.05%
Cc1cc(N/N=C2/CCCc3ccccc32)nc2ccccc12
  Potency: inconclusive: 22.4 µM [inhibitor, single point]

Remaining list, next part.

Compound | activity, negative = active | Potency
O=C(NCc1ccccn1)c1ccc2c(=O)n(CCc3ccccc3)c(=O)[nH]c2c1 |  | inconclusive: 35.5 µM [inhibitor, partial curve, poor fit]
COc1ccc(C2c3ccc(O)cc3Oc3ncn(Cc4ccco4)c(=N)c32)cc1 (centres undefined) |  | inconclusive: 25.1 µM [inhibitor, single point]
O=C(COc1ccccc1[N+](=O)[O-])Nc1cc(C(=O)O)cc(C(=O)O)c1 |  | inconclusive: 3.16 µM [inhibitor, partial curve, poor fit]
CCCCN(C)CC(O)Cn1cc(/C=C/C(=O)c2ccc(Br)cc2)c2ccccc21 (centres undefined) |  | inconclusive: 22.4 µM [inhibitor, single point]
O=C(N/N=C/c1ccc[nH]1)c1ccccc1O |  | inconclusive: 12.6 µM [inhibitor, partial curve, poor fit]
CCn1c(C)c(C)c2cc(C(=O)NCC(C)c3ccccc3)ccc21 (centres undefined) | inactive: -5.12% | 
CC(NC(=O)/C(C#N)=C1\N=C(NC(=O)c2cccs2)c2ccccc21)c1ccccc1 (centres undefined) |  | inconclusive: 20 µM [inhibitor, single point]
Clc1ccc(CNc2cnccn2)cc1Cl |  | inconclusive: 14.1 µM [inhibitor, partial curve]
CC(=O)c1c(N2CCCC2)[nH]c(-c2ccccc2)nc1=S | inactive: -9.84% | 
Cc1c(NC(=O)C(C)OC(=O)Cc2ccc(F)cc2)c(=O)n(-c2ccccc2)n1C (centres undefined) |  | inconclusive: 35.5 µM [inhibitor, single point]
CCOc1ccccc1OCC(=O)Nc1cc(C)on1 |  | inconclusive: 10 µM [inhibitor, partial curve, poor fit]
O=C1Cc2cc(S(=O)(=O)N3CCN(c4cccc(Cl)c4)CC3)ccc2N1 |  | inconclusive: 35.5 µM [inhibitor, single point]
COc1ccccc1/C=C1\S/C(=N/NC(=O)c2cccc(Br)c2)NC1=O | inactive: -0.664% | 
CC(C)(C)c1ccc(C(=O)CSc2ncn[nH]2)cc1 |  | inconclusive: 35.5 µM [inhibitor, single point]
COc1ccccc1N(CC(=O)NC1CCCC1)C(=O)c1oc(C(C)(C)C)cc1C | inactive: -2.31% | 
Cc1cccc(C(=O)Oc2ccccc2/C=N/Nc2ccc([N+](=O)[O-])cc2)c1 |  | inconclusive: 35.5 µM [inhibitor, single point]
N#C/C(=C/c1cccs1)c1ccccn1 |  | inconclusive: 20 µM [inhibitor, partial curve, poor fit]
CCc1nnc(NC(=O)c2sc3nc4cc(C)ccc4cc3c2N)s1 |  | inconclusive: 14.1 µM [inhibitor, partial curve, poor fit]
COc1ccc(NC(=O)c2ccc(OCc3c(C)noc3C)c(OC)c2)cn1 |  | inconclusive: 5.62 µM [inhibitor, single point]
NC(=O)CCC1NC(=S)N(Cc2ccccc2)C1=O (centres undefined) |  | inconclusive: 35.5 µM [inhibitor, single point]
CC(=O)c1sc2nsc(SCCN3CCCC3)c2c1N |  | inconclusive: 10 µM [inhibitor, partial curve, poor fit]
CCCN1CCC(=NNc2ccc(S(=O)(=O)N(CC)CC)cc2[N+](=O)[O-])CC1 |  | inconclusive: 8.91 µM [inhibitor, partial curve, poor fit]

Compound | activity, negative = active | Potency
N#CC1(C#N)CC(C=O)=C(N)C1(C#N)CC(=O)C12CC3CC(CC(C3)C1)C2 (centres undefined) |  | inconclusive: 35.5 µM [inhibitor, single point]
NC(=O)CC(NC(=O)Cc1ccc(Br)cc1)c1ccc(NCc2cc(F)ccc2F)c([N+](=O)[O-])c1 (centres undefined) |  | inconclusive: 35.5 µM [inhibitor, single point]
CCOC(=O)Cc1csc(NC(=S)NC(=O)c2ccc(F)cc2)n1 |  | inconclusive: 20 µM [inhibitor, partial curve, poor fit]
Fc1ccc(/C=N/NC(=S)Nc2cccnc2)cc1 |  | inconclusive: 15.8 µM [inhibitor, single point]
COc1ccc(N2CCN(CC(O)COCc3ccccc3)CC2)cc1 (centres undefined) |  | inconclusive: 10 µM [inhibitor, single point]
COc1ccccc1CNC(=O)CCCc1nnc2n(C)c(=O)c3sccc3n12 | inactive: -0.201% | 
O=C1OCC2=C1C(c1ccccc1)CC(=O)N2c1ccc(F)cc1 (centres undefined) |  | inconclusive: 35.5 µM [inhibitor, single point]
COc1ccc(/C(O)=C/c2nc3ccc(C(=O)NCCc4cccc(C)c4)cc3[nH]c2=O)cc1OC |  | inconclusive: 5.62 µM [inhibitor, single point]
O=C(N/N=C/C(Br)=C/c1ccccc1)c1ccc([N+](=O)[O-])cc1 |  | inconclusive: 15.8 µM [inhibitor, single point]
COC(=O)c1c(-c2cccnc2)csc1NC(=O)c1cc(C)on1 |  | inconclusive: 17.8 µM [inhibitor, single point]
O=C(c1ccc2nc(-c3ccco3)c(-c3ccco3)nc2c1)N1CCN(c2ncccn2)CC1 | inactive: -14% | 
CCCOc1nc2ccccc2cc1/C=C/C(=O)O |  | inconclusive: 1.78 µM [inhibitor, partial curve, poor fit]
Cc1cc2c(=O)n(C)c(SCC(=O)Nc3ccccc3C)nc2s1 |  | inconclusive: 3.16 µM [inhibitor, partial curve, poor fit]
COc1cccc(CN(C)CC(=O)Nc2sc3c(c2C#N)CCC3)c1 |  | inconclusive: 35.5 µM [inhibitor, single point]
CN1CCN(c2nc(-c3ccccc3)nc(-c3ccc(F)cc3)c2C#N)CC1 |  | inconclusive: 3.16 µM [inhibitor, full curve]
S=C1NC2=C(CCC/C2=C\c2ccc(Cl)cc2)C(c2ccc(Cl)cc2)N1 (centres undefined) | inactive: 8.57% | 
O=C(c1cccc(Cl)c1)N1CCN(Cc2ccncc2)CC1 | inactive: -6.34% | 
CCN(CC)C(=O)[C@H]1CC(CC(=O)NCC23CC4CC(CC(C4)C2)C3)C(=O)N2CCc3c([nH]c4ccccc34)[C@]12C (some centres undefined) |  | inconclusive: 25.1 µM [inhibitor, single point]
O=C1NC(=S)N(C(=O)c2ccc(F)cc2)/C1=C/c1ccccc1 |  | inconclusive: 20 µM [inhibitor, partial curve, poor fit]
CCOc1ccc(-c2cnc3n2CCC3)cc1 |  | inconclusive: 12.6 µM [inhibitor, single point]
